Earlier results in patent publication US20240115569A1, “METHODS FOR BLOCKING HER2 SIGNALING FOR TREATING PULMONARY FIBROSIS” (CEDARS-SINAI MEDICAL CENTER, priority 2021, published 2024).
At least one compound was matched to its structure with a doubt left.

Tested on: MSCs
Details: cited from earlier work

| Compound | IGF-1-induced increase in MSC migration in response to SDF-1 |
| --- | --- |
| COC[C@H]1OC(=O)c2coc3c2[C@@]1(C)C1=C(C3=O)[C@@H]2CCC(=O)[C@@]2(C)C[C@H]1OC(C)=O [wortmannin] | attenuated |
| O=c1cc(N2CCOCC2)oc2c(-c3ccccc3)cccc12 [LY294002] | attenuated |
